The AC50 is the concentration giving half of the maximal activity seen.

Some of the results follow. Shown are side measurements of this screen, not its main read-out; they come without a call. The list favours compounds with an active or inconclusive main result. The note in brackets gives the kind of curve behind each potency; many fits are weak.

We go through 61 compounds from PubChem BioAssay AID2685 (National Center for Advancing Translational Sciences (NCATS), 2010).

The assay can be described thus: qHTS Assay for Lipid Storage Modulators in Drosophila S3 Cells.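 For cell number change: cells counted by Cell Tracker Red CMTPX staining in the red channel.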 The note with it: BODIPY lipid droplet fluorescence, 18-24 h; for cell number change: measured here: cell count max response, cells fed with added oleic acid. A digest of the protocol: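 Drosophila S3 cells loaded with oleic acid (400 uM, as added) and compounds at several concentrations; lipid droplets imaged by 488-nm laser-scanning cytometry, 500–530 nm intensity and object ratio to cell channel. Percent activity normalized to 20 uM Triacsin C.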
(Quantitative high-throughput screening tests each substance at several concentrations.)

Setting [1] is: measured here: cell number channel AC50, cells fed with added oleic acid.
The mark [2] stands for this setting: measured here: lipid fluorescence (Fed channel) AC50, cells fed with added oleic acid.

`Cc1cccc(OC(C)C(=O)Nc2cc(Cl)ccc2-n2cncn2)c1` (centres undefined): the cell number change was -6.49%. Also, the AC50 under setting [1] is 1.84 µM [falling, single point]. Moreover, under setting [2], the AC50 was 1.84 µM [falling, single point].

Take `COc1ccc(S(=O)(=O)c2c(O)cc(C)c(NS(=O)(=O)c3ccccc3)c2C)cc1`: the cell number change is -23.8%. For the same compound, the AC50 under setting [2] is 29.1 µM [falling, single point]. For the compound `CC(C(=O)NCc1ccccc1)N1C(=O)c2ccccc2C1=O` (centres undefined), the cell number change is -5.28%.

For the compound `COc1ccccc1-c1nnc2sc(-c3cnccn3)nn12`, the cell number change was determined as 15.5%. For the same compound, the AC50 under setting [2] is 4.61 µM [rising, partial curve]. In the case of `O=C(Oc1ccccc1C(=O)Nc1ccccc1)c1ccccc1Br`, the cell number change was -41.3%. The AC50 under setting [1] was 25.9 µM [falling, partial curve]. Moreover, the AC50 under setting [2] was 18.4 µM [falling, partial curve]. For the compound `COC(=O)[C@H](Cc1ccccc1)NC(=O)NCC1CCCO1` (some centres undefined), the cell number change was -39.1%. For the same compound, under setting [1], the AC50 was 1.16 µM [falling, full curve]. In addition, the AC50 under setting [2] was 0.92 µM [falling, full curve, poor fit].

As to `Cc1noc(C)c1CSc1nc2sc(C)c(C)c2c(=O)n1C1CCCC1`, the cell number change amounted to 9.34%. In addition, the concentration at half-maximal activity (AC50) under setting [2] was 8.2 µM [rising, partial curve]. In the case of `Cc1ccc(S(=O)(=O)N2CCN(CC(=O)N/N=C/C=C/c3ccccc3)CC2)cc1`, the cell number change was found to be 52.6%. Further, the AC50 under setting [1] is 6.51 µM [rising, full curve, poor fit]. Under setting [2], the AC50 was 23.1 µM [rising, single point].

Regarding `Cc1c(NS(=O)(=O)c2ccc3c(c2)c(=O)n(C)c(=O)n3C)c(=O)n(-c2ccccc2)n1C`, the cell number change came to 19.8%. Besides, under setting [1], the AC50 is 0.103 µM [rising, full curve, poor fit]. `CCC(C)N1C(=O)C2C(C(=O)Nc3cccc(OC)c3)C3C=CC2(O3)C1C(=O)NC1CCCCC1C` (centres undefined): the cell number change is -12.3%. For the compound `CN(NC(=O)c1ccco1)c1nc2ccccc2nc1C(F)(F)F`, the cell number change is 115%. Moreover, the AC50 under setting [1] was 18.4 µM [rising, single point].

As for `CC(C)(C)NC(=O)COC(=O)CCC(=O)c1ccc(Cl)cc1`, the cell number change was -24.2%. The AC50 under setting [1] was 3.66 µM [falling, single point]. Under setting [2], the AC50 was 2.91 µM [falling, partial curve, poor fit]. In the case of `CCOC(=O)c1cc(C(O)(C(F)(F)F)C(F)(F)F)c(/N=C/N(C)C)o1`, the cell number change stood at 23.1%. Further, the AC50 under setting [2] is 2.06 µM [rising, single point]. Consider `CCN(CC)C(=O)C(=O)c1cccn1-c1c(Cl)cccc1C#N`, for which the cell number change was 25.9%. The AC50 under setting [2] is 13 µM [rising, partial curve]. In the case of `C=CCON1C(=O)c2ccccc2C1=O`, the cell number change was -9.68%. As for `CN1CCN(C(=O)CCc2nc(-c3ccc(Cl)cc3)no2)CC1`, the cell number change was determined as 19.1%. As for `CC(=O)C1=C(C)NC(SCC(=O)c2ccc(C)cc2)=C(C#N)C1c1ccco1` (centres undefined), the AC50 runs as follows: under setting [1], 2.91 µM [rising, partial curve]; under setting [2], 2.31 µM [rising, partial curve].

Turning to `O=C(CN1CCN(Cc2ccccc2)C1=O)NCc1ccc(Cl)cc1`, the cell number change was -32.4%. Further, the AC50 under setting [1] was 14.6 µM [falling, partial curve]. Turning to `O=C(c1ccc(NS(=O)(=O)c2cccc([N+](=O)[O-])c2)cc1)N1CCN(C(=O)c2ccco2)CC1`, under setting [2], the AC50 is 8.2 µM [falling, partial curve]. For the compound `Cc1ccc(OCC(=O)Nc2ccc(NC(=O)c3ccccc3)cc2)cc1C`, the cell number change was 59.7%. Further, under setting [2], the AC50 is 6.51 µM [falling, single point]. On to `COC(=O)c1cc(C(=O)OCC(=O)c2ccc3c(c2)NC(=O)CO3)cc([N+](=O)[O-])c1`, for which the cell number change was -1.81%.

On to `CCC(NC(=O)c1ccccc1NC(=O)c1ccco1)C(=O)NNC(=O)c1ccc(OC)cc1` (centres undefined), for which the cell number change is -15.5%. For the same compound, under setting [1], the AC50 was 0.461 µM [falling, full curve, poor fit]. Turning to `COc1ccc(C2CC(c3ccccc3)=NN2C(=O)COC(=O)C2CC2)cc1` (centres undefined), the cell number change was found to be 14.8%. Moreover, the AC50 under setting [2] was 32.6 µM [falling, single point]. Consider `CCCCCCCCCCOC(=O)NC1CCS(=O)(=O)C1` (centres undefined), for which the cell number change is -11.4%. The AC50 under setting [1] is 5.8 µM [falling, single point]. The AC50 under setting [2] was 4.11 µM [falling, partial curve]. For `CCN(CC)CCn1c(=S)[nH]c2cc(C(=O)NCc3ccc(C)cc3)ccc2c1=O`, the AC50 under setting [1] was 1.84 µM [rising, partial curve] and the AC50 under setting [2] is 29.1 µM [rising, single point]. As for `CCCC(=O)Nc1cc(OC)c(NC(=O)NC2CCCCC2)cc1OC`, the cell number change was -9.73%.

For the compound `COc1ccc(CCNC(=O)c2ccc(OCC(=O)N3CCOCC3)c(OC)c2)cc1OC`, the cell number change is -33.2%. Under setting [1], the AC50 is 5.62 µM [falling, full curve]. Turning to `S=c1[nH]c2ccccc2n1Cc1ccccc1`, the cell number change was 5.74%. Consider `COc1ccc(Oc2ccc(N/C=C3\CCCC3=O)cc2)cc1`, for which the cell number change stood at 5.49%. Further, the AC50 under setting [2] was 29.1 µM [rising, single point]. `Cc1noc(C)c1C(=O)NCCc1ccc(Cl)cc1`: under setting [2], the AC50 is 0.291 µM [falling, partial curve, poor fit]. With `OC(CCN1CCC2(CC1)OCCO2)C(F)(F)F` (centres undefined), the cell number change was -20.9%. Further, the AC50 under setting [1] is 0.0291 µM [falling, full curve, poor fit]. For the same compound, under setting [2], the AC50 is 0.00517 µM [falling, full curve, poor fit].

Consider `Cc1c(C(=O)OCC(=O)NCCc2ccc(S(N)(=O)=O)cc2)oc2ccccc12`, for which the cell number change is -28.5%. Also, the AC50 under setting [2] is 0.231 µM [falling, full curve]. Take `O=C(Nc1cc(Cl)ccc1O)C1CC(c2ccccc2O)=NO1` (centres undefined): the cell number change was -27.7%. Also, the AC50 under setting [2] was 0.146 µM [rising, full curve, poor fit]. For `CC(C)c1ccc2c(c1)CCC1C(C)(CN)CCCC21C` (centres undefined), the cell number change was -31.3%. For the same compound, the AC50 under setting [1] is 23.1 µM [falling, single point]. Moreover, the AC50 under setting [2] was 29.1 µM [falling, single point].

In the case of `COc1ccccc1-c1cc(C(=O)NCc2cccs2)no1`, the cell number change turned out to be 38%. The AC50 under setting [1] is 2.31 µM [rising, partial curve, poor fit]. Further, under setting [2], the AC50 is 23.1 µM [falling, partial curve, poor fit]. As to `Cc1nnc(NN)n(N)c1=O`, the cell number change came out at 3.41%. For the same compound, the AC50 under setting [2] was 0.00461 µM [falling, full curve, poor fit]. As to `CC(=O)c1cc(C(=O)c2ccccc2)sc1Nc1ccccc1`, the cell number change was -13.6%. Regarding `COc1ccc(C(=O)N(Cc2nc(-c3ccc(C)cc3)no2)C(C)C)cc1OC`, the cell number change stood at 43.1%. Also, the AC50 under setting [1] is 11.6 µM [rising, partial curve, poor fit]. In addition, the half-maximal activity concentration (AC50) under setting [2] was 9.2 µM [rising, partial curve]. `CN1CC(C(=O)Nc2ccc(F)c(Cl)c2)CC1=O` (centres undefined): the cell number change worked out at 1.57%. Moreover, the AC50 under setting [2] was 29.1 µM [rising, partial curve, poor fit]. Turning to `COc1ccc(C2(O)CCN(Cc3nnnn3Cc3ccc(C)cc3)CC2)cc1`, the cell number change is 26%. For the same compound, under setting [2], the half-maximal activity concentration (AC50) is 29.1 µM [rising, single point]. On to `COc1ccc(OCC(=O)Nc2ccc(NC(=O)c3ccccc3Cl)c(OC)c2)cc1`, for which the cell number change was 10.3%. On the same count and under the same terms, with `O=C(NC(=O)c1ccccc1O)c1ccc2c(c1)CCO2` the figure was -9.03%. As to `CCOC(=O)c1[nH]c2ccc(OC)cc2c1NC(=S)N1CCN(c2cccc(C)c2C)CC1`, the cell number change was -70.3%. Besides, the AC50 under setting [1] was 20.6 µM [falling, single point]. Take `N#C/C(=C\c1ccccn1)c1ccccn1`: the cell number change is -1.39%. The AC50 under setting [1] is 0.411 µM [rising, full curve, poor fit]. Also, under setting [2], the AC50 is 6.51 µM [rising, partial curve].

Take `COc1ccc(NC(=O)CSc2nnc(Cc3cccs3)n2-c2ccc(C)cc2)cc1`: under setting [2], the AC50 was 0.58 µM [rising, single point]. In the case of `COc1ccc(C)cc1NC(=O)CSc1nnnn1C1CCCC1`, the cell number change amounted to 8.97%. The AC50 under setting [2] is 29.1 µM [falling, single point]. `COC(=O)C1=C(C(=O)OC)[C@@H]2N(C)c3ccc(OC)cc3[C@@]23C[C@@H](C(=O)OC)N(S(=O)(=O)c2ccc(OC)cc2)C3=N1`: the cell number change amounted to 18%. Also, the AC50 under setting [2] was 25.9 µM [rising, single point]. As for `Cc1cccc(-n2c(SCCC(=O)O)nnc2-c2cccs2)c1C`, the cell number change is -9.74%. Further, the AC50 under setting [1] is 0.0366 µM [falling, full curve]. The AC50 under setting [2] was 0.146 µM [falling, partial curve, poor fit]. Regarding `CCN(CC)CCCn1c2c(c(SCC(=O)Nc3nc(C)cs3)nc1=O)CCC2`, the cell number change turned out to be 1%. For `Cc1ccc(NC(=O)c2cc(-c3cc(C)c(C)cc3O)n[nH]2)cc1C`, the cell number change is 2.7%. For the same compound, the AC50 under setting [1] is 2.91 µM [rising, single point]. Consider `NC(=O)COC(=O)CNC(=O)c1sc2ccccc2c1Cl`, for which the cell number change came out at 25%. Still for that read-out and setting: in the case of `C=Cc1ccc(Cn2c(=O)n(C)c(=O)c3sccc32)cc1` it was -22.5%. Take `CCC(C)NC(=O)CN(c1cc(Cl)ccc1OC)S(C)(=O)=O` (centres undefined): the cell number change was -31.9%. For the same compound, under setting [1], the AC50 is 29.1 µM [falling, single point].

As to `COc1cc(C(=O)Nc2nccs2)cc(OC)c1OC`, the cell number change came out at 6.68%. In addition, the AC50 under setting [2] is 3.26 µM [rising, partial curve]. `CC1(NC(=O)NCc2ccccc2)CCS(=O)(=O)C1` (centres undefined): under setting [2], the AC50 was 0.651 µM [falling, single point]. For the compound `CCOc1ccc(Br)cc1S(=O)(=O)Nc1ccc(NC(=O)c2ccccc2F)cc1`, the cell number change was -4.91%. Consider `Cc1ccc(S(=O)(=O)NCC(=O)OCC(=O)c2ccc(Br)s2)cc1`, for which the cell number change is 18.3%. Same read-out and setting: with `COc1ccc(-c2c(C)nn3c(-c4ccccc4)cc(C)nc23)cc1` the figure was -49.9%.

Take `CCN(CC)S(=O)(=O)c1cc(C(=O)OCC(=O)NC(=O)c2cccn2C)ccc1C`: the cell number change turned out to be 21.7%. Further, the AC50 under setting [2] was 1.46 µM [rising, partial curve]. Consider `COc1ccc(C)cc1S(=O)(=O)N(CC(=O)NC1CCCC1)c1ccc(F)cc1`, for which the cell number change came to 4.5%. Under setting [1], the AC50 was 6.51 µM [rising, partial curve, poor fit]. With `Cc1cccc(N2CC(C(=O)Nc3ccc4c(c3)OCCO4)CC2=O)c1C` (centres undefined), the cell number change turned out to be 37.8%. Moreover, the AC50 under setting [1] was 25.9 µM [rising, partial curve].
